Some of these results come from one statement about several compounds together.
Experiment: Aqueous solubility in distilled (pure) water at room temperature

Cc1c(Cl)c(C)[n+]([O-])c(Cl)c1-c1noc(-c2cc(OCOP(=O)(O)O)c(O)c([N+](=O)[O-])c2)n1 [Compound 4, 2,5-dichloro-3-(5-(4-hydroxy-3-nitro-5-((phosphonooxy)methoxy)phenyl)-1,2,4-oxadiazol-3-yl)-4,6-dimethylpyridine 1-oxide]
solubility in pure water compared to opicapone per se (in words): significantly increased solubility

From patent US20260103479A1, “PRODRUGS OF OPICAPONE” (BIAL- PORTELA & CA, S.A., priority 2022, published 2026)
